Test results published in PubChem BioAssay AID504834 (National Center for Advancing Translational Sciences (NCATS), 2011).
The campaign covered roughly 320,000 compounds. About 22,000 (6.9%) were called active. The inconclusive results got no clear call from the source; some entries with a clear call stand among them for comparison. Calls follow the shape of the dose curve; as a rule, active = well fitted inhibition curve with a large enough effect; inconclusive = small, poorly fitted or top-dose-only effect, or another doubt; inactive = no such curve, though single readings can be large or run the other way. Where the call is inconclusive, the potency comes from a doubtful curve fit.

assay: Primary qHTS for delayed death inhibitors of the malarial parasite plastid, 96 hour incubation; settings: P. falciparum luciferase reporter growth; series mostly up to 28.7 µM
Procedure, shortened: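 Delayed-death screen, second-generation endpoint: infected erythrocytes, 2% hematocrit, 0.05% parasitemia final; 96 hours at 37 C, 5% CO2; luciferase detection reagent; luminescence decrease equals reduced growth.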
Potency is read from the fitted curve at half-maximal effect.

Structure (SMILES)	Potency
CCOc1cc(/C=C2\SC(N)=NC2=O)ccc1O	inconclusive: 18.5 µM [inhibitor, single point]
COc1nc(N(c2ccccc2)c2ccccc2)nc(-n2ccnc2)n1	inconclusive: 2.94 µM [inhibitor, partial curve, poor fit]
CCn1c(SCC(=O)C(C)(C)C)nnc1-c1ccccn1	inconclusive: 18.5 µM [inhibitor, single point]
O=C(NCCS(=O)(=O)N1CCN(c2ccccc2)CC1)c1ccco1	inactive
Cc1cc(F)ccc1S(=O)(=O)N1CCCOC1CNC(=O)C(=O)NC1CC1 (configuration not stated)	inactive
Cc1cccnc1NC(=O)c1cccc(NC(=O)CC2SC(N3CCCCC3)=NC2=O)c1 (configuration not stated)	inconclusive: 18.5 µM [inhibitor, single point]
CCOc1ccc(NC(=O)Cn2nnc(-c3ccccc3NC(=O)c3cccs3)n2)cc1	inconclusive: 5.22 µM [inhibitor, partial curve, poor fit]
CCCCCC(=O)Nc1cccc(C2=NOC3(C2)C[C@H](C(N)=O)N(C(=O)c2ccccc2C(=O)c2ccccc2)C3)c1 (some centres not stated)	inconclusive: 9.28 µM [inhibitor, single point]
O=C1NCCN1CCNS(=O)(=O)c1ccccc1[N+](=O)[O-]	inconclusive: 18.5 µM [inhibitor, single point]
COc1ccc(-c2cc(=O)c3cc(C)ccc3[nH]2)cc1	inconclusive: 18.5 µM [inhibitor, single point]
O=C1C2(CCCC13COC(c1ccc(O)cc1)OC3)COC(c1ccc(O)cc1)OC2 (configuration not stated)	inconclusive: 3.29 µM [inhibitor, partial curve, poor fit]
O=C(NNc1c(Cl)cccc1Cl)c1c(F)cccc1Cl	inconclusive: 4.15 µM [inhibitor, partial curve, poor fit]
C/C(=N\NC(=O)c1c(Cl)cnn1C)c1cccc(NC(=O)c2ccc(C)cc2)c1	inactive
COc1ccc(OCCC(=O)OCC(=O)Nc2ccc(S(=O)(=O)N3CCOCC3)cc2)cc1	inconclusive: 0.657 µM [inhibitor, full curve, poor fit]
COC(=O)C1=C(c2ccc(OC(F)(F)F)cc2)C[C@@H]2CC[C@H]1N2C(=O)N1CCC(C)CC1	inconclusive: 3.29 µM [inhibitor, partial curve, poor fit]
N#Cc1c2n(c3c(=O)n(Cc4ccccc4Cl)cnc13)CCCCC2	inconclusive: 11.7 µM [inhibitor, single point]
COc1cc(OC)c(C(=O)NCc2ccco2)cc1OC	inactive
CN1CCN(c2ccc(S(=O)(=O)N3CCCCC3)cc2NC(=O)c2ccc(C#N)cc2)CC1	inconclusive: 9.28 µM [inhibitor, single point]
CCn1c(=O)[nH]c2cc(Cl)c(Cl)cc21	inactive
COc1ccc(N=CC2=C(O)c3ccccc3C2=O)c(OC)c1	inconclusive: 9.28 µM [inhibitor, partial curve, poor fit]
N=C1/C(=C\c2coc3ccccc3c2=O)C(=O)N=C2SC(c3ccncc3)=NN12	inconclusive: 0.0041 µM [inhibitor, full curve, poor fit]
Cc1cc(N2CCN(Cc3ccccc3)CC2)n2nc(C)c(-c3ccccc3)c2n1	inconclusive: 2.33 µM [inhibitor, partial curve, poor fit]
Cc1ccc(NC(=O)C(C)c2cccc(C(=O)c3ccccc3)c2)cc1 (configuration not stated)	inconclusive: 1.47 µM [inhibitor, partial curve, poor fit]

Structure (SMILES)	Potency
COc1ccc(N2C(=O)C3CCCN3C2c2ccc(Cl)cc2)cc1 (configuration not stated)	active: 9.28 µM
COc1ccc(C(=O)CN2C(=O)C(C)(C)Oc3ccc(C(=O)N4CCCCCC4)cc32)cc1	active: 9.28 µM
COc1cc(CNCc2cc(OC)c(OC)c(OC)c2)cc(OC)c1	inconclusive: 14.7 µM [inhibitor, single point]
Cc1nnc(SCCn2c(N3CCC(Cc4ccccc4)CC3)nc3c2c(=O)[nH]c(=O)n3C)s1	active: 9.28 µM
CC(C)c1cc(CNC(=O)c2cc(COc3cncc(Cl)c3)on2)on1	inconclusive: 9.28 µM [inhibitor, partial curve]
O=C(O)C(=O)Cc1c[nH]c2ccccc12	inactive
O=P(OC1CCCCC1)(OC1CCCCC1)C(Nc1ccccc1)c1cccnc1 (configuration not stated)	inconclusive: 1.47 µM [inhibitor, partial curve]
O=C(N/N=C/c1cc([N+](=O)[O-])ccc1N1CCCCCC1)c1ccccn1	inconclusive: 18.5 µM [inhibitor, single point]
Fc1ccc(Nc2nc(NCc3ccco3)c3ccccc3n2)cc1	inconclusive: 0.465 µM [inhibitor, full curve, poor fit]
Cc1c(O)ccc(C(=O)COc2ccc(F)cc2)c1O	inconclusive: 14.7 µM [inhibitor, single point]
Cc1nn(CC(=O)Nc2ccc3c(c2)OCO3)c(C)c1Cl	inconclusive: 18.5 µM [inhibitor, single point]
CCOc1[nH]n(-c2ccccc2)c(=O)c1C=Nc1ccc(C)cc1	inactive
Cc1ccc(C)c(OCC(=O)N2CCN(c3ncccn3)CC2)c1	inconclusive: 10.4 µM [inhibitor, single point]
CCOC(=O)C1(Cc2ccccc2C)CCCN(C(=O)COC)C1 (configuration not stated)	inconclusive: 14.7 µM [inhibitor, single point]
COc1ccc(NC(=O)c2ccc(COCC(F)(F)C(F)F)cc2)cc1	inconclusive: 18.5 µM [inhibitor, single point]
CCOC(=O)c1cccc(NC(=O)CSc2nnnn2C)c1	inconclusive: 18.5 µM [inhibitor, single point]
Cc1ccc(C(=O)N2CCC3(CC2)NCCc2[nH]cnc23)cc1C	inactive
O=C(Nc1ccc(N2CCOCC2)cc1)c1cc2c(s1)CCCCC2	inconclusive: 9.28 µM [inhibitor, single point]
Nc1c(-c2ccc(Cl)cc2)cnn1-c1cccc([N+](=O)[O-])c1	inactive
COc1ccc(C2c3[nH]c4ccccc4c3CCN2C(=O)c2cn3ccccc3n2)c(F)c1 (configuration not stated)	inconclusive: 13.1 µM [inhibitor, single point]
CCC(Sc1nc(N)c(NC(=O)c2ccc(OC)c(OC)c2)c(=O)[nH]1)C(=O)OC (configuration not stated)	inconclusive: 0.0586 µM [inhibitor, full curve, poor fit]
CCOc1ccc(NC(=S)N(Cc2ccc(Cl)cc2)Cc2ccco2)cc1	inconclusive: 1.47 µM [inhibitor, full curve, poor fit]
COc1ccc(/C=C/C(=O)Nc2sc3c(c2C(=O)NCc2cccnc2)CCCC3)cc1	inconclusive: 1.47 µM [inhibitor, full curve]

In the list so far, these contain a furan ring, fused or not:
Structure (SMILES)	Potency
O=C(NCCS(=O)(=O)N1CCN(c2ccccc2)CC1)c1ccco1	inactive
COc1cc(OC)c(C(=O)NCc2ccco2)cc1OC	inactive
Fc1ccc(Nc2nc(NCc3ccco3)c3ccccc3n2)cc1	inconclusive: 0.465 µM [inhibitor, full curve, poor fit]
CCOc1ccc(NC(=S)N(Cc2ccc(Cl)cc2)Cc2ccco2)cc1	inconclusive: 1.47 µM [inhibitor, full curve, poor fit]

Quoted at random: 2 records from the list, in no set order.
Structure (SMILES)	Potency
CCOC(=O)c1cccc(NC(=O)CSc2nnnn2C)c1	inconclusive: 18.5 µM [inhibitor, single point]
Cc1c(O)ccc(C(=O)COc2ccc(F)cc2)c1O	inconclusive: 14.7 µM [inhibitor, single point]

Later entries:

Structure (SMILES)	Potency
Cc1sc2ncn(CC(=O)NCCCC(=O)N3CCC4(CC3)OCCO4)c(=O)c2c1C	inconclusive: 10.4 µM [inhibitor, single point]
COc1ccc2c(c1)c1ncn(CCN3CCCC3)c(=O)c1n2C	inconclusive: 11.7 µM [inhibitor, single point]
COc1ccc(/C=C/C(=O)NC(=S)NNC(=O)c2ccco2)cc1	active: 10.4 µM
O=C(O)c1ccc(S(=O)(=O)N(Cc2ccc(F)cc2)C2CCCCC2)cc1	active: 11.7 µM
CC(CC(=O)N1CCN(S(=O)(=O)c2ccccc2)CC1)n1cncn1 (configuration not stated)	inconclusive: 1.31 µM [inhibitor, partial curve, poor fit]
CN(C)CCCN(C(=O)c1cc(-c2cccs2)nc2ccccc12)c1nc2c(F)cccc2s1	inconclusive: 16.5 µM [inhibitor, single point]
Oc1ccc(-c2cn3ccccc3n2)cc1	inactive
O=C(O)CC1S/C(=N/N=C/C=C/c2ccccc2)NC1=O (configuration not stated)	inactive
Cc1cc(C)cc(N(CC(=O)NCC2CCCO2)C(=O)CN2C(=O)COc3ccccc32)c1 (configuration not stated)	inconclusive: 10.4 µM [inhibitor, single point]
Cc1nc(NCCc2ccccc2)c(C#N)c(C)c1[N+](=O)[O-]	inconclusive: 2.33 µM [inhibitor, single point]
O=C(Nc1nc2ccccc2n1CCN1CCOCC1)c1cn(-c2ccccc2)nc1-c1ccccc1	inconclusive: 11.7 µM [inhibitor, single point]
Cc1cccc(NC(=S)NC(=O)c2ccco2)n1	inactive
CC(C)c1ccc(S(=O)(=O)N2CCN(C(=O)[C@@H]3CCCN3C(=O)c3cccs3)CC2)cc1	inactive
COc1ccc(OC)c(C(=O)COC(=O)c2cccnc2Cl)c1	inactive
Cc1nn2c(-c3ccccc3)nnc2c2ccccc12	inconclusive: 13.1 µM [inhibitor, partial curve, poor fit]
COc1ccc(-c2nc(C#N)c(NCc3ccccc3Cl)o2)cc1OC	active: 0.586 µM
CCOc1ccccc1NC(=O)CNC(=O)c1nn(-c2ccc(OC)c(OC)c2)c(=O)c2ccccc12	inconclusive: 7.38 µM [inhibitor, partial curve]
Cc1cc(C)c2nc(NCc3ccccc3O)sc2c1	inactive
Cc1cc(C)n(CC(O)Cn2c3ccc(Br)cc3c3cc(Br)ccc32)c(=O)n1 (configuration not stated)	inconclusive: 18.5 µM [inhibitor, single point]
COC(=O)c1sc(=S)n(-c2cc(F)ccc2F)c1N	inconclusive: 9.28 µM [inhibitor, partial curve, poor fit]
CCOc1cccc2cc(C(=O)NCCC3=CCCCC3)c(=O)oc12	inactive
